Data as given in patent US5468730A, “Methods for the treatment of non-IgE-mediated diseases” (Dura Pharmaceuticals, Inc., priority 1992, dated 1995).
“And” between values parts separate entries of the source, which are not always exact repeats. Equal entries are not always repeated. Not every detail of the peptide structures is certain; ends, links or a residue may be inferred. No end group written: not given here.

Tests used:
[1] = test system: sheep erythrocyte (SRBC)-induced DTH reactions; experiment: Sheep erythrocyte (SRBC)-induced DTH footpad swelling in mice; type: in vivo, female Balb/C mice
[2] = test system: carrageenan-induced inflammation; experiment: Carrageenan-induced footpad edema in mice; type: in vivo, female Balb/C mice; conditions: pentigetide 1.0 mg/kg i.v.; footpad volumes over a 6 hour period
Description: In order to examine the ability of pentigetide to inhibit carrageenan-induced inflammation, female Balb/C mice were injected with 0.025 ml of 1.0% carrageenan solution (type 1x carrageenan: Sigma No. C-1013, Lot No. 86F-0698) or saline in the right hind footpad 5 minutes after intravenous tail vein injection of 0.2 ml pentigetide (1.0 mg/kg) or saline solution.

[3] = test system: immune complex-induced colitis; experiment: Immune complex-mediated ulcerative colitis model (formalin + IgG immune complexes) in mice; type: in vivo, male BKA mice (outbred Swiss albino)
Description: A mouse model of intestinal inflammation was employed wherein the efficacy of pentigetide in reducing inflammation induced by formalin and complement-fixing IgG immune complexes was measured. This model is particularly useful as a model of human ulcerative colitis and shares many clinical and histological functions of the human disease including sensitivity to glucocorticoids, sulfasalazine and 5-aminosalicylic acid (see L. P. Walsh, et al., British J. Pharm. 91:294 (1987); A. Blackham, et al., British J. Pharm. 89:694 (1986); L. D. Walsh and I. J. Zeitlin, British J. Pharm. 92:741 (1987)). The mouse model of intestinal inflammation used in these studies is induced by the exposure of the animals to chemicals which are known to trigger inflammatory processes in both animals and humans. The first step in inducing inflammation in this model is the exposure of tissues to formalin (an aqueous solution of formaldehyde gas), which is known to produce irritation and inflammation upon contact with cells of animals or humans (Clinical Toxicology of Commercial Products (R. E. Gosselin, et al., editor), 5th edition, Williams & Wilkins, 1984, pp. III-196 to III-198). At the peak of formalin-induced inflammation, IgG immune complexes are injected to further activate inflammatory processes which involve activation of leukocytes and the complement system. Inflammation induced by immune complexes is classified as Type III hypersensitivity and contributes to many disease processes, some of which were previously discussed.
In the present measurements, three trials were used: a dose-response trial, a "therapeutic"-vs.-"prophylactic" treatment trial, and a trial which compared pentigetide to Asp-Ser-Asn-Pro-Arg, control peptides and to a vehicle control solution.
In the immune complex-mediated ulcerative colitis model employed, intestinal inflammation was induced in male BKA mice (outbred Swiss albino) (20-30 g) using the method described by Walsh in mice (i.e., Walsh, et al., British J. Pharm. 91:294, 1987) and by Hodgson in rabbits (Hodgson, et al., Gut 19:225 (1978)). As a primary irritant, 1% formalin in saline was instilled intra-rectally into mice. Three hours later, at the peak of the initial formalin response, immune complexes composed of polyclonal rabbit anti-human serum albumin (HSA) (Sigma) formed in antigen excess were injected i.v. The resultant colitic inflammation reached a maximum three days later. Mice were then sacrificed for evaluation.
Colonic tissue water content was determined by tissue weight loss on drying of colonic tissues.
Each experiment consisted of (A) a group of untreated healthy mice (n=10), (B) a vehicle treated control group which had received only intra-rectal formalin solution (n=10), (C) a group of formalin+IgG-anti HSA-treated mice given s.c. saline injections and (D) one or two formalin and IgG-anti HSA experimental drug treatment groups (n=10).
The response to immune complex alone was determined quantitatively by subtracting the mean value in group B from the mean value in group C. An estimate of the percentage reduction in this response produced by the drug was calculated as: [formula] Group A animals (healthy) were used as a baseline to monitor Group B animals (formalin instillation only). Since the formalin-induced inflammation is transient, any inflammation present in the formalin only group (compared with healthy group A) at sacrifice on day 3 would constitute evidence that an unknown source of inflammation was present and all results from that particular experiment would be discarded. Statistical significance was determined using the non-parametric Mann-Whitney U-test.
In order to establish a dose-response profile for pentigetide, animals received 0.012, 0.06, 0.3, 1.5, 7.5 or 37.5 mg pentigetide/kg subcutaneously 1 day prior and 1 hour prior to induction of colitis and daily for a further 3 days until sacrificed. […]

[4] = test system: chronic idiopathic urticaria (non-IgE-mediated)
[5] = test system: binding of IgE to lymphoblastoid tissue culture cells; conditions: two trials; reported in U.S. Pat. No. 4,161,522; cited from earlier work
[6] = dose-response trial, doses above 1.5 mg/kg

Substance | Percent Inhibition ([1]; pentigetide 1.0 mg/kg injected at nape of neck on day 2, 3 and 4, footpad volume about 24 h after SRBC challenge) | Percent Inhibition ([1]; pentigetide 10.0 mg/kg, day 2, 3 and 4, footpad volume about 24 h after challenge) | Percent Inhibition ([1]; pentigetide 100.0 mg/kg, day 2, 3 and 4, footpad volume about 24 h after challenge) | Percent Inhibition ([1]; pentigetide 400.0 mg/kg, day 2, 3 and 4, footpad volume about 24 h after challenge) | Percent Inhibition ([1]; pentigetide 800.0 mg/kg, day 2, 3 and 4, footpad volume about 24 h after challenge) | inhibition of carrageenan-induced inflammation compared to saline control animals [2] | microscopic signs of colon inflammation (hematoxylin and eosin-stained colonic tissues) ([3]; 0.3 mg/kg, vehicle control-treated mice 36.1%) | reduction in the mean colitis score ([3]; dose-response trial, 0.012 mg/kg s.c., p<0.01) | reduction in the mean colitis score ([3]; dose-response trial, 0.06 mg/kg s.c., p<0.001) | reduction in the mean colitis score ([3]; dose-response trial, 0.3 mg/kg s.c., p<0.01) | reduction in the mean colitis score ([3]; dose-response trial, 1.5 mg/kg s.c., p<0.001) | percent inhibition of colonic edema (maximum inhibitory response) ([3]; dose-response trial, 1.5 mg/kg s.c., p<0.01) | reducing the edema response [3, 6] | suppressing the signs of colitis [3, 6] | severe seasonal allergic rhinitis ([4]; Patient A, within 24 hours of initial pentigetide therapy, in remission throughout treatment) | relief for the urticaria ([4]; Patient B, 100 mg s.c. twice a week for two weeks, then 50 mg twice per week) | pruritus ([4]; Patient B, after two days of therapy) | clinical condition ([4]; Patient B, within 24 hours of treatment) | activity: ability to block binding of IgE to lymphoblastoid tissue culture cells [5]
DSDPR [pentigetide, Asp-Ser-Asp-Pro-Arg] | 8% | 19% | 23% | 36% | 41% | substantial inhibition | no inflammatory changes were observed | 69.7% | 90.9% | 76.0% | 88.0% | 70.0% | decreasingly effective | decreasingly effective | totally resolved | Total relief | almost total resolution | marked improvement | 
DSNPR [Asp-Ser-Asn-Pro-Arg] |  |  |  |  |  |  |  |  |  |  |  |  |  |  |  |  |  |  | 5% and 6%
